Test results as given in article PMC4242536, “Cell Surface Protein Disulfide Isomerase Regulates Natriuretic Peptide Generation of Cyclic Guanosine Monophosphate” (PLoS ONE, 2014).
These are yes or no findings as the source states them, for the method shown. Binding seen in cells or lysates may run through a third protein. Some binding calls cover weakened binding; strength is not graded here.

Protein sequences, listed by entry. Tags and fused reporters are not part of them. Residues count along the entry.
UniProt P16066, residues 33-1061: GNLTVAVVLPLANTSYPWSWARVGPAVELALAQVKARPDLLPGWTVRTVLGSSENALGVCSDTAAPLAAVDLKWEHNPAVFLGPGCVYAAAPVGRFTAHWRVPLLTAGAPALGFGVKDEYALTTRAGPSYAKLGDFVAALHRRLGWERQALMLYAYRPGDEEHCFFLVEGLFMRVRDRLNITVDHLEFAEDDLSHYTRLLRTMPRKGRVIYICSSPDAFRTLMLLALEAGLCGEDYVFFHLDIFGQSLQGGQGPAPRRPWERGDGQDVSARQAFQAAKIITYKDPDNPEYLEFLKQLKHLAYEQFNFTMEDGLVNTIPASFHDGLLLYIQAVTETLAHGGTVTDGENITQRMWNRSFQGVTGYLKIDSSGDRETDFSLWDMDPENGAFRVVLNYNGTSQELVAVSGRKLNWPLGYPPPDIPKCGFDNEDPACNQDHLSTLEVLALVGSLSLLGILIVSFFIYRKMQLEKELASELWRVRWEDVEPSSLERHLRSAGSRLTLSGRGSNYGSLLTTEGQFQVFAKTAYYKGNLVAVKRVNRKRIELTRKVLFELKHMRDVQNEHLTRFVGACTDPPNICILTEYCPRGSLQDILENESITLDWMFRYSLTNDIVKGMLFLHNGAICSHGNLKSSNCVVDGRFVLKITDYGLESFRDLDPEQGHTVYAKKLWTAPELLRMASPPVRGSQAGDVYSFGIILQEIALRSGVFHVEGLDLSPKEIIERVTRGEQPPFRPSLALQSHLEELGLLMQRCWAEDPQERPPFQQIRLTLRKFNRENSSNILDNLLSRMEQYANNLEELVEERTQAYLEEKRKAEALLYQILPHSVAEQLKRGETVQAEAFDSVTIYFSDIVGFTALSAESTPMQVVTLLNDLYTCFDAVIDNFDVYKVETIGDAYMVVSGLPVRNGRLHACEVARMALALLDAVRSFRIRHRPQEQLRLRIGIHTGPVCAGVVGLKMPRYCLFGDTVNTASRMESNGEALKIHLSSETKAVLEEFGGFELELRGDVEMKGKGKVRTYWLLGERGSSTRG
UniProt P20594, residues 23-1047: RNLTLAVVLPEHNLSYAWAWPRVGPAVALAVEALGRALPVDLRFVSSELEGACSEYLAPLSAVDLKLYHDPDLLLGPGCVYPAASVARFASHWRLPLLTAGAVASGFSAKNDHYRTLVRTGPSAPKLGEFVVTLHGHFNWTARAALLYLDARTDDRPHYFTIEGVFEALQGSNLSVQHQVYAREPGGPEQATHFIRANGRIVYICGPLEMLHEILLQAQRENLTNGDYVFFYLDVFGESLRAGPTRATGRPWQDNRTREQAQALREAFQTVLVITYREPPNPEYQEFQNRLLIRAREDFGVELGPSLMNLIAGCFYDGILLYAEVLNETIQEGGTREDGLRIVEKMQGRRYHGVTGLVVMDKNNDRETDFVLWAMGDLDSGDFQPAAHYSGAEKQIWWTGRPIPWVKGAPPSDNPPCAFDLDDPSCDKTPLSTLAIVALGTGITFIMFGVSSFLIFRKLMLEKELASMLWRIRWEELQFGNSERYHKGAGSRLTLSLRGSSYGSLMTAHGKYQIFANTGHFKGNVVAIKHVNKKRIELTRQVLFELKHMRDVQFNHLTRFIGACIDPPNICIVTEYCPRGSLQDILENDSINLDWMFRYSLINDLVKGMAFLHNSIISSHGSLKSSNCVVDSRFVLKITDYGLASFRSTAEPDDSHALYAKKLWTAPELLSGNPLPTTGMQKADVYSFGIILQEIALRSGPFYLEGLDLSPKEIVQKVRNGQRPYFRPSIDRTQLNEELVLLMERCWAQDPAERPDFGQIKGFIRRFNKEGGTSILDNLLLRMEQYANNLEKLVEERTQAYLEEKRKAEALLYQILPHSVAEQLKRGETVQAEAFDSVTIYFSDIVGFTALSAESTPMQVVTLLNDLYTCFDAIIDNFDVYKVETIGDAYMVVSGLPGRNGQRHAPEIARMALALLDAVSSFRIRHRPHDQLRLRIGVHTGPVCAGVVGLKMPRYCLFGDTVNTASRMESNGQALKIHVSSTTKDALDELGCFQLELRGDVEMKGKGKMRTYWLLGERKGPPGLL
UniProt P07237, residues 18-508: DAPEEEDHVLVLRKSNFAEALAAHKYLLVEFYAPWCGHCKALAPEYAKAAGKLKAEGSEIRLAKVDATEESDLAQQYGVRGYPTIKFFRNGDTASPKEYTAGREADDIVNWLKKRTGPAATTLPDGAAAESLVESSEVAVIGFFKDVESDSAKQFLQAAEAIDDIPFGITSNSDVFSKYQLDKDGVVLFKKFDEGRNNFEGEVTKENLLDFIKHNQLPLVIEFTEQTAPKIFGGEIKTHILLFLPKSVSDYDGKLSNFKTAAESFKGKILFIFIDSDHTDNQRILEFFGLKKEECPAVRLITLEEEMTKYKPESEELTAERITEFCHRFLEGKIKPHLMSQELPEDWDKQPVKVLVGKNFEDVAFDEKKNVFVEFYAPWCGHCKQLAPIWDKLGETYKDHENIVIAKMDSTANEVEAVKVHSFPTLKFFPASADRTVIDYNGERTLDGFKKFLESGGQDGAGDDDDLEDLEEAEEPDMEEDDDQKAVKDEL

How the values were obtained:
[1] = target: guanylyl cyclase-linked receptor GC-A (NPR-A), endogenous (human (endogenous in HUVEC)) (UniProt P16066); test: co-IP; membrane fractions (HUVEC or HMC) solubilised in CHAPS immunoprecipitation buffer; 300 µg protein with 1 µg anti-GC-A or anti-GC-B antibody or control IgG, 4 h to overnight at 4°C; protein A/G Plus-Agarose; blot with anti-PDI monoclonal antibody (RL90)
[2] = target: guanylyl cyclase-linked receptor GC-B (NPR-B), endogenous (human (endogenous in HMC)) (UniProt P20594); test: as above

membrane bound protein disulfide isomerase (PDI), endogenous (from UniProt P07237 18-508) (enzyme)
binding [1]: binds | binding [2]: binds
